From patent publication US7838518B2, “1-arylsulfonyl-3-substituted indole and indoline derivatives useful in the treatment of central nervous system disorders” (N.V. Organon, priority 2002, dated 2010)
Some of these results come from one statement about several compounds together. At least one structure is not confirmed: it was looked up by name or label, or the drawing left a doubt.

The chains behind the UniProt entries cited, without tags or fusion partners.
UniProt P50406, whole entry: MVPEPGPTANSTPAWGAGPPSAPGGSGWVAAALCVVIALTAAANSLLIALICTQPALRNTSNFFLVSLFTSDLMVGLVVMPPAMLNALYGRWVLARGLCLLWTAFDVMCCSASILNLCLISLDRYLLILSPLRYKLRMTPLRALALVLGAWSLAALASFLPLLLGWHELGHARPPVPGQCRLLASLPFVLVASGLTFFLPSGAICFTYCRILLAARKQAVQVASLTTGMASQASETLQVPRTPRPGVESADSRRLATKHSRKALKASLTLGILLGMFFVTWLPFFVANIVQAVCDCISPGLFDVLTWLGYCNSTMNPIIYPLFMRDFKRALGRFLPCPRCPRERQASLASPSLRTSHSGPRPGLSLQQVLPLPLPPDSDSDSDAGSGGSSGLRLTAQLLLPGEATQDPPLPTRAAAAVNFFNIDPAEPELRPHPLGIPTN

Biological target: T1, human 5-HT6 receptor (Homo sapiens, UniProt P50406)
T1 construct: expressed in transfected cells
Assay: 5-HT6 receptor binding assay ([3H]-LSD competition)
Settings: membranes of NIH 3T3 cells stably expressing the human 5-HT6 gene; [3H]-LSD radioligand; IC50 converted to pKi by Cheng-Prusoff equation
Experimental: The ability of the compounds of the invention to interact with the 5-HT6 receptor is established in (competitive) binding studies to NIH 3T3 cells stably expressing the human 5-HT6 receptor.
NIH 3T3 cells stably expressing the human 5-HT6 gene were grown at 37° C. in a 5% CO2 atmosphere in DMEM supplemented with 10% cosmic calf serum (Hyclone) and subcultured when confluent. Cells were harvested by trypsination (Sigma) and membranes prepared by homogenisation followed by centrifugation in […] Tris buffer (pH 7.4) containing […] magnesium sulphate and […] EDTA. Radioligand binding assays were performed in 96 well polystyrene deep well plates (Semat) in a final volume of 500 μl, consisting of 100 μl of competing drug, 100 μl of 10 nmole·L^−1 [^3H]-lysergic acid diethylamide (LSD) and 300 μl of diluted membrane expressing the 5-HT6 receptor. All test compounds were dissolved in DMSO (dimethyl-sulfoxide) at 10 mM and serially diluted is assay buffer to give a six-fold concentration range (between 0.01 nM and 100 μM). Non-specific binding was determined with 10 μM Methiothepin. Plates were incubated at room temperature for 90 minutes. The reactions were terminated by rapid filtration using a Packard harvester onto 96 well GF/B filter plates (Packerd Unifilter) presoaked with 0.3% w/N polyethyleneimine, washed 3 times with ice-cold assay buffer (1 ml), oven dried and 50 μl Microscint-20 added. The retained radioactivity was then determined using a scintillation counter.
Data were analysed using standard curve fitting procedures (Graphpad: four parameter logistic equation) to produce IC50 values for active compounds (where IC50 is the concentration of test compound causing 50% inhibition of binding). IC50 values were conerted to pKi values using the Cheng-Prusoff equation 1 (Cheng, Y. and Prosoff, W. H., Biochem. Pharmacol. 22, 3099-3108, 1973).

Molecule | pKi (affinity for the 5-HT6 receptor)
1-(5-Bromo-thiophene-sulfonyl)-2,3-dihydro-1H-indole-3-carboxylic acid methyl-(1-methyl-piperidin-4-yl)-amide trifluoroacetate [Example 43] | higher than 7.5
COc1ccc(S(=O)(=O)N2CC(C(=O)N3CCCNCC3)c3ccccc32)c2ccccc12 (stereo not shown) [Example 34] | higher than 7.5
CN1CCC(N(C)C(=O)C2CN(S(=O)(=O)c3cc(Br)c(Cl)s3)c3ccccc32)CC1.O=C(O)C(F)(F)F (stereo not shown) [Example 44] | higher than 7.5
CN1CCC(N(C)C(=O)C2CN(S(=O)(=O)c3cc(Br)c(Br)s3)c3ccccc32)CC1.O=C(O)C(F)(F)F (stereo not shown) [Example 47, 1-(4,5-Dibromo-thiophene-sulfonyl)-2,3-dihydro-1H-indole-3-carboxylic acid methyl-(1-methyl-piperidin-4-yl)-amide trifluoroacetate] | higher than 7.5
